Results are given in words; binding and its absence hold for the method and conditions named. In cells and extracts the contact can be indirect. These calls come from enrichment with a bait or labelling near it, and not all partners need be listed. Where a sequence is shown, tags or fusion partners need not be part of it.

Three substances from paper PMC7447783, “Cryo-EM structure of trimeric Mycobacterium smegmatis succinate dehydrogenase with a membrane-anchor SdhF” (Nature Communications, 2020) can be followed below.

The assay addresses T1, SdhD subunit of M. smegmatis Sdh2 (membrane-anchored protein) with C-terminal 10x His tag (M. smegmatis) (UniProt A0QT09).
T1 sequence: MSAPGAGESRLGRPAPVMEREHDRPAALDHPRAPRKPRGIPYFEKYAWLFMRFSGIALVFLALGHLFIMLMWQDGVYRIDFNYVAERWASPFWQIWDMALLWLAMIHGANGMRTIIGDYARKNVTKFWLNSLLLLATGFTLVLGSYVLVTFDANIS
The experiment in a line: affinity purification with mass spectrometry; SdhD-10xHis as bait; 1% digitonin extract of M. smegmatis membranes on Ni-NTA, then Superdex 200 in 20 mM MOPS pH 7.4, 100 mM NaCl, 0.1% digitonin; components detected by SDS-PAGE and MS.

With “SdhB subunit of M. smegmatis Sdh2 (iron-sulfur protein)”, the binding entry is reported as “binds”.

Take “SdhC subunit of M. smegmatis Sdh2 (membrane-anchored protein)”: the binding result is on record as “binds”.

“SdhA subunit of M. smegmatis Sdh2 (FAD-binding protein)”: the binding result is reported as “binds”.
